Laboratory results: PubChem BioAssay AID1259308 (NCATS, 2017)

Test: 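Candidate targets for better recombinant protein yield in mammalian cells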 (primary screen)
System: human HEK293 embryonic kidney cells stably expressing firefly luciferase (HEK-CMV-Luc2-Hygro)
Reagents: single siRNA against human genes, 0.8 pmol siRNA per well
Duration: 72 h
Measurement: 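Luciferase light (ONE-Glo) measured on one replicate plate set and viability (CellTiter-Glo) on the other, scaled to a negative control siRNA, with robust z-scores and luciferase per cell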
Scale: total luciferase, z-score and total luciferase, % of control: higher = more reporter protein produced; luciferase per cell, z-score: higher = more reporter output per viable cell; viable cells, % of control: higher = more viable cells
Hit rule: 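Active when the median/MAD z-score for overall luciferase is greater than 3; a gene was taken forward for validation with new siRNAs if at least two of its three siRNAs passed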
Meaning of the calls: active = raised luciferase; inactive = no rise
In all, the deposit lists about 59,000 reagents; below is a part drawn at random. About 1,510 of them (2.6%) were called active. 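Calls use total luciferase alone and ignore viability, so some active siRNAs may act by altering cell number.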 Reagents against one gene are numbered here. Reagent sequences are not shown.

The first 2 records as a preview:
| target | siRNA no. | total luciferase, z-score | total luciferase, % of control | luciferase per cell, z-score | viable cells, % of control | call |
| --- | --- | --- | --- | --- | --- | --- |
| INTU (inturned planar cell polarity protein) | 1 | 0.86 | 99 | 0.983 | 85.4 | inactive |
| INTU (inturned planar cell polarity protein) | 2 | 0.582 | 93.5 | -0.052 | 106 | inactive |

The listing, repeating the preview:
| target | siRNA no. | total luciferase, z-score | total luciferase, % of control | luciferase per cell, z-score | viable cells, % of control | call |
| --- | --- | --- | --- | --- | --- | --- |
| INTU (inturned planar cell polarity protein) | 1 | 0.86 | 99 | 0.983 | 85.4 | inactive |
| INTU (inturned planar cell polarity protein) | 2 | 0.582 | 93.5 | -0.052 | 106 | inactive |
| INTU (inturned planar cell polarity protein) | 3 | 0.601 | 93.8 | -0.0741 | 107 | inactive |
| MGAT2 | 1 | 0.681 | 95.4 | 0.729 | 88 | inactive |
| MGAT2 | 2 | 1.37 | 109 | 2.73 | 59.4 | inactive |
| MGAT2 | 3 | 0.733 | 96.5 | 1.05 | 81.8 | inactive |
| CCHCR1 (coiled-coil alpha-helical rod protein 1) | 1 | 0.755 | 96.9 | 2.56 | 55.1 | inactive |
| CCHCR1 (coiled-coil alpha-helical rod protein 1) | 2 | 1.91 | 120 | 1.3 | 95.2 | inactive |
| CCHCR1 (coiled-coil alpha-helical rod protein 1) | 3 | -0.00777 | 81.7 | 0.318 | 84 | inactive |
| LOC401220 (retired record) | 1 | 1.79 | 117 | 1.3 | 93.2 | inactive |
| LOC401220 (retired record) | 2 | 2.84 | 138 | 1.86 | 94.6 | inactive |
| LOC401220 (retired record) | 3 | -2.62 | 29.8 | -2.09 | 57.6 | inactive |
| CPT2 (carnitine palmitoyltransferase 2) | 1 | 0.373 | 89.3 | 0.729 | 82.4 | inactive |
| CPT2 (carnitine palmitoyltransferase 2) | 2 | -0.0519 | 80.9 | 0.449 | 80.3 | inactive |
| CPT2 (carnitine palmitoyltransferase 2) | 3 | -1.86 | 44.9 | -2.55 | 98.2 | inactive |
| SYBU (syntabulin) | 1 | -0.89 | 64.2 | 0.756 | 58.8 | inactive |
| SYBU (syntabulin) | 2 | -0.0671 | 80.6 | 0.155 | 86.4 | inactive |
| SYBU (syntabulin) | 3 | -0.0621 | 80.7 | 0.0718 | 88.4 | inactive |
| HEG1 (heart development protein with EGF like domains 1) | 1 | 0.0691 | 83.3 | 0.0147 | 92.7 | inactive |
| HEG1 (heart development protein with EGF like domains 1) | 2 | 0.242 | 86.7 | 0.0258 | 96.2 | inactive |
| HEG1 (heart development protein with EGF like domains 1) | 3 | -0.744 | 67.1 | -0.434 | 84 | inactive |
| RNGTT (RNA guanylyltransferase and 5'-phosphatase) | 1 | -1.6 | 50.1 | -1.52 | 83.6 | inactive |
| RNGTT (RNA guanylyltransferase and 5'-phosphatase) | 2 | -1.34 | 55.1 | -1.62 | 94.4 | inactive |
| RNGTT (RNA guanylyltransferase and 5'-phosphatase) | 3 | -0.127 | 79.4 | -0.487 | 101 | inactive |
| KIF24 (kinesin family member 24) | 1 | -0.825 | 65.5 | 0.295 | 67.7 | inactive |
| KIF24 (kinesin family member 24) | 2 | -0.636 | 69.2 | -0.591 | 90.4 | inactive |
| KIF24 (kinesin family member 24) | 3 | -0.398 | 74 | 0.77 | 67.5 | inactive |
| CACTIN (cactin, spliceosome C complex subunit) | 1 | 0.792 | 97.6 | 2.43 | 57.5 | inactive |
| CACTIN (cactin, spliceosome C complex subunit) | 2 | 1.78 | 117 | 1.71 | 83.4 | inactive |
| CACTIN (cactin, spliceosome C complex subunit) | 3 | 1.13 | 104 | 3.73 | 43.7 | inactive |
| DHRS7B (dehydrogenase/reductase 7B) | 1 | -0.418 | 73.6 | -0.491 | 93.6 | inactive |
| DHRS7B (dehydrogenase/reductase 7B) | 2 | 0.153 | 84.9 | -0.165 | 99.1 | inactive |
| DHRS7B (dehydrogenase/reductase 7B) | 3 | -0.467 | 72.6 | -0.091 | 83.1 | inactive |
| TPCN2 (two pore segment channel 2) | 1 | -2.47 | 32.7 | -3 | 80.6 | inactive |
| TPCN2 (two pore segment channel 2) | 2 | 0.544 | 92.7 | 0.458 | 91.8 | inactive |
| TPCN2 (two pore segment channel 2) | 3 | 0.495 | 91.7 | 0.221 | 96.7 | inactive |
| ACOXL (acyl-CoA oxidase like) | 1 | 1.06 | 103 | 0.455 | 102 | inactive |
| ACOXL (acyl-CoA oxidase like) | 2 | -2.68 | 28.5 | -3.85 | 87.9 | inactive |
| ACOXL (acyl-CoA oxidase like) | 3 | -1.11 | 59.8 | -0.0142 | 67 | inactive |
